Results reported in patent US20020081614, “Functional genomics using zinc finger proteins” (Sangamo BioSciences, Inc., published 2002).

System: T1, RAN control ZFP-VP16 (pcV-RAN) (synthetic construct)
T1 sequence: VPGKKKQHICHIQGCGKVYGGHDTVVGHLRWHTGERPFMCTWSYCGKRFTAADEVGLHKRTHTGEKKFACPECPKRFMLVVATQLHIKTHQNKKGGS
Assay: activity in cells
Conditions: baseline control with no known DNA binding capability; fold 1 by definition; protein in cells; protein details: NLS, HSV VP16 activation domain, Flag; variant of M6-1892S site; only the site is given; counted as no effect

GGGGTTGAG (double strand) [reporter with three tandem M6-1892S sites (pGLP-VF471x3)]
activity on this sequence (fold activation): 1

The exact form of at least one protein or probe is not confirmed. Tags and fusion partners may be left off the protein sequences shown.
